Amino acid sequences for entries named in this document (tags omitted).
UniProt Q96RN5: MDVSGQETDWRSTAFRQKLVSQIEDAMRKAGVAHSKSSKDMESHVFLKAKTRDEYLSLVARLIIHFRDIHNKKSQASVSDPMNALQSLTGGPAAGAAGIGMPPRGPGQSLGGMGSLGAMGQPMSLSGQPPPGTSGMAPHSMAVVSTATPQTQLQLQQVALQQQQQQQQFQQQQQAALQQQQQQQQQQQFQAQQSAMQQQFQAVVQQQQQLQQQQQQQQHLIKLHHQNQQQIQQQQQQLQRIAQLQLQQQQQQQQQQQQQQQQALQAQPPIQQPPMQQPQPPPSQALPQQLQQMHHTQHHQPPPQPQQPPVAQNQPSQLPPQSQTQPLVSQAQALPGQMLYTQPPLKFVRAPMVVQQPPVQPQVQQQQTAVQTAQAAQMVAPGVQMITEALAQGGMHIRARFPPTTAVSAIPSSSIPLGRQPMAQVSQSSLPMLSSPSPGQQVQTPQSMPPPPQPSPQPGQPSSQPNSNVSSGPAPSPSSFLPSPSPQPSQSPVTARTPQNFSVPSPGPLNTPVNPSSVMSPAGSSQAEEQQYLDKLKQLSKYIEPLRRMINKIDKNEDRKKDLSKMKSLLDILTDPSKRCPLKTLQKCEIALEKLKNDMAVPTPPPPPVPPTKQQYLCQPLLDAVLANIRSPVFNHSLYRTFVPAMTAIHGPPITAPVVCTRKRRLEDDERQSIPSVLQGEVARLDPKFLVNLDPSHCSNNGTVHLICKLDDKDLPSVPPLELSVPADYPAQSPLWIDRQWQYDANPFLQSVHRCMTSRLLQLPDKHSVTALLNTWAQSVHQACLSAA

According to article PMC8990217, “DUX4 is a multifunctional factor priming human embryonic genome activation” (iScience, 2022):

What was measured:
[1] = molecular target: DUX4 with C-terminal MAC-tag (MAC-tag-C-DUX4 WT) (human) (UniProt Q9UBX2); assay: affinity purification with mass spectrometry; MAC-tag AP-MS (stable interactions), DUX4-MAC bait in Flp-In T-REx 293 cells, tetracycline induction; SAINTexpress BFDR < 0.05; GFP-NLS as negative control
[2] = molecular target: DUX4 with C-terminal MAC-tag (MAC-tag-C-DUX4 WT) (human) (UniProt Q9UBX2); assay: proximity labelling; MAC-tag BioID-MS (transient interactions gathered over 20 h), DUX4-MAC bait in Flp-In T-REx 293 cells, biotin treatment; SAINTexpress BFDR < 0.05; GFP-NLS as negative control

Mediator subunit 15 (MED15), endogenous (from UniProt Q96RN5 1-788)
binding [1]: binds
binding [2]: binds

No constants are given. Whether binding was seen depends on the method and setting. Binding seen in cells or lysates may run through a third protein. These calls come from enrichment with a bait or labelling near it, and not all partners need be listed.
